According to publication doi:10.1101/2024.04.08.588568:
No constants are given. Whether binding was seen depends on the method and setting. Binding seen in cells or lysates may run through a third protein. Some entries that bind do so weakly or less than the wild type. Tags and fused reporters may be left off the sequences shown.

Chains of the proteins cited; added tags and fusions are not shown. Lines headed by an entry give the natural chain unless they say otherwise; changes in a name come on top. Residues count along the entry.
UniProt P0CG63, 1-76: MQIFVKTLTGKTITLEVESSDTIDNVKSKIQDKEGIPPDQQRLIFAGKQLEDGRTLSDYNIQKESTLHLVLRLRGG

T1: Atg32-3×HA (S. cerevisiae) (UniProt P40458)
T1 sequence: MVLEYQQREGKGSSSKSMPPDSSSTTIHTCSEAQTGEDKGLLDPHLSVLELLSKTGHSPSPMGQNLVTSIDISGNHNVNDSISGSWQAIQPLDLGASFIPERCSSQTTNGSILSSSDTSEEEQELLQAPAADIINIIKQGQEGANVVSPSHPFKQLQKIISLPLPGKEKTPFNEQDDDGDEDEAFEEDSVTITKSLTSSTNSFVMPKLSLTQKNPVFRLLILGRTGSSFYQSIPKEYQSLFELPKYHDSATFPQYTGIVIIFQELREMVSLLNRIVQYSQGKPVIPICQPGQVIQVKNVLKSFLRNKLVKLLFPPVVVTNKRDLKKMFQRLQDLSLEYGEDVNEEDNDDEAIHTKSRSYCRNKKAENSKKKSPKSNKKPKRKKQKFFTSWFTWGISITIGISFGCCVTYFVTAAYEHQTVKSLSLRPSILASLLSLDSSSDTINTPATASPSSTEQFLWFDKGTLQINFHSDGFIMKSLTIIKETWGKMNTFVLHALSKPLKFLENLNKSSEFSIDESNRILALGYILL


Key:
[1] = target: T1, Atg32-3×HA (S. cerevisiae); test: co-IP
[2] = target: T1, Atg32-3×HA (S. cerevisiae); test: co-IP; remark: listed apart in the source
[3] = target: T1, Atg32-3×HA (S. cerevisiae); test: co-IP + cross-linking

| binding [2] | Molecule | further results |
| --- | --- | --- |
| – | ubiquitin (from UniProt P0CG63 1-76) | binding [1]: binds |
| binds | Get1-GFP (protein, UniProt P53192 1-235) MHWAAAVAIFFIVVTKFLQYTNKYHEKWISKFAPGNELSKKYLAKVKERHELKEFNNSISAQDNYAKWTKNNRKLDSLDKEINNLKDEIQSENKAFQAHLHKLRLLALTVPFFVFKIMYGKTPVYKLSSSTSTLFPTFVSGVWSQGWLYVLLHPLRTISQKWHIMEGKFGASKFDDMALQSVSLGIWVWALMNVINGVEFIVKQLFLTPKMEAPASVETQEEKALDAVDDAIILD | – |
| – | Doa10-9×Myc (enzyme, UniProt P40318 1-1319) MDVDSDVNVSRLRDELHKVANEETDTATFNDDAPSGATCRICRGEATEDNPLFHPCKCRGSIKYMHESCLLEWVASKNIDISKPGADVKCDICHYPIQFKTIYAENMPEKIPFSLLLSKSILTFFEKARLALTIGLAAVLYIIGVPLVWNMFGKLYTMMLDGSSPYPGDFLKSLIYGYDQSATPELTTRAIFYQLLQNHSFTSLQFIMIVILHIALYFQYDMIVREDVFSKMVFHKIGPRLSPKDLKSRLKERFPMMDDRMVEYLAREMRAHDENRQEQGHDRLNMPAAAADNNNNVINPRNDNVPPQDPNDHRNFENLRHVDELDHDEATEEHENNDSDNSLPSGDDSSRILPGSSSDNEEDEEAEGQQQQQQPEEEADYRDHIEPNPIDMWANRRAQNEFDDLIAAQQNAINRPNAPVFIPPPAQNRAGNVDQDEQDFGAAVGVPPAQANPDDQGQGPLVINLKLKLLNVIAYFIIAVVFTAIYLAISYLFPTFIGFGLLKIYFGIFKVILRGLCHLYYLSGAHIAYNGLTKLVPKVDVAMSWISDHLIHDIIYLYNGYTENTMKHSIFIRALPALTTYLTSVSIVCASSNLVSRGYGRENGMSNPTRRLIFQILFALKCTFKVFTLFFIELAGFPILAGVMLDFSLFCPILASNSRMLWVPSICAIWPPFSLFVYWTIGTLYMYWFAKYIGMIRKNIIRPGVLFFIRSPEDPNIKILHDSLIHPMSIQLSRLCLSMFIYAIFIVLGFGFHTRIFFPFMLKSNLLSVPEAYKPTSIISWKFNTILLTLYFTKRILESSSYVKPLLERYWKTIFKLCSRKLRLSSFILGKDTPTERGHIVYRNLFYKYIAAKNAEWSNQELFTKPKTLEQAEELFGQVRDVHAYFVPDGVLMRVPSSDIVSRNYVQTMFVPVTKDDKLLKPLDLERIKERNKRAAGEFGYLDEQNTEYDQYYIVYVPPDFRLRYMTLLGLVWLFASILMLGVTFISQALINFVCSFGFLPVVKLLLGERNKVYVAWKELSDISYSYLNIYYVCVGSVCLSKIAKDILHFTEGQNTLDEHAVDENEVEEVEHDIPERDINNAPVNNINNVEEGQGIFMAIFNSIFDSMLVKYNLMVFIAIMIAVIRTMVSWVVLTDGILACYNYLTIRVFGNSSYTIGNSKWFKYDESLLFVVWIISSMVNFGTGYKSLKLFFRNRNTSKLNFLKTMALELFKQGFLHMVIYVLPIIILSLVFLRDVSTKQIIDISHGSRSFTLSLNESFPTWTRMQDIYFGLLIALESFTFFFQATVLFIQWFKSTVQNVKDEVYTKGRALENLPDES | binding [3]: binds |
| binds | Doa10^C39S-9×Myc (enzyme, UniProt P40318 1-1319) MDVDSDVNVSRLRDELHKVANEETDTATFNDDAPSGATSRICRGEATEDNPLFHPCKCRGSIKYMHESCLLEWVASKNIDISKPGADVKCDICHYPIQFKTIYAENMPEKIPFSLLLSKSILTFFEKARLALTIGLAAVLYIIGVPLVWNMFGKLYTMMLDGSSPYPGDFLKSLIYGYDQSATPELTTRAIFYQLLQNHSFTSLQFIMIVILHIALYFQYDMIVREDVFSKMVFHKIGPRLSPKDLKSRLKERFPMMDDRMVEYLAREMRAHDENRQEQGHDRLNMPAAAADNNNNVINPRNDNVPPQDPNDHRNFENLRHVDELDHDEATEEHENNDSDNSLPSGDDSSRILPGSSSDNEEDEEAEGQQQQQQPEEEADYRDHIEPNPIDMWANRRAQNEFDDLIAAQQNAINRPNAPVFIPPPAQNRAGNVDQDEQDFGAAVGVPPAQANPDDQGQGPLVINLKLKLLNVIAYFIIAVVFTAIYLAISYLFPTFIGFGLLKIYFGIFKVILRGLCHLYYLSGAHIAYNGLTKLVPKVDVAMSWISDHLIHDIIYLYNGYTENTMKHSIFIRALPALTTYLTSVSIVCASSNLVSRGYGRENGMSNPTRRLIFQILFALKCTFKVFTLFFIELAGFPILAGVMLDFSLFCPILASNSRMLWVPSICAIWPPFSLFVYWTIGTLYMYWFAKYIGMIRKNIIRPGVLFFIRSPEDPNIKILHDSLIHPMSIQLSRLCLSMFIYAIFIVLGFGFHTRIFFPFMLKSNLLSVPEAYKPTSIISWKFNTILLTLYFTKRILESSSYVKPLLERYWKTIFKLCSRKLRLSSFILGKDTPTERGHIVYRNLFYKYIAAKNAEWSNQELFTKPKTLEQAEELFGQVRDVHAYFVPDGVLMRVPSSDIVSRNYVQTMFVPVTKDDKLLKPLDLERIKERNKRAAGEFGYLDEQNTEYDQYYIVYVPPDFRLRYMTLLGLVWLFASILMLGVTFISQALINFVCSFGFLPVVKLLLGERNKVYVAWKELSDISYSYLNIYYVCVGSVCLSKIAKDILHFTEGQNTLDEHAVDENEVEEVEHDIPERDINNAPVNNINNVEEGQGIFMAIFNSIFDSMLVKYNLMVFIAIMIAVIRTMVSWVVLTDGILACYNYLTIRVFGNSSYTIGNSKWFKYDESLLFVVWIISSMVNFGTGYKSLKLFFRNRNTSKLNFLKTMALELFKQGFLHMVIYVLPIIILSLVFLRDVSTKQIIDISHGSRSFTLSLNESFPTWTRMQDIYFGLLIALESFTFFFQATVLFIQWFKSTVQNVKDEVYTKGRALENLPDES | – |
